Results deposited as PubChem BioAssay AID686937 (Drosophila RNAi Screening Center, 2013).

Test: 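Genes whose loss weakens secretory pathway function in fly cells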 (primary screen)
System: Drosophila S2 cells expressing secreted horseradish peroxidase
Knock-down reagent: long dsRNA against Drosophila genes
Timing: about 5.5 days (5 days dsRNA, then 12 h reporter induction)
Conditions: reporter expression induced after 5 days of dsRNA, read 12 h later; inducer not stated
Detection: 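After 5 days of dsRNA and 12 h of reporter induction, medium peroxidase read by chemiluminescence and scored as per-plate z-score; higher values mean more reporter released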
Scale: z-score: higher = more reporter secreted into medium
The screen tested about 23,000 reagents; this is a random part of those with a known target gene and a result. 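Reduced-secretion tags in replicate 1 do not always agree with the z-scores; no criterion for assigning the tags was given.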 Names joined by + are all predicted targets of the reagent. The record does not give: the amount of reagent.

target	amplicon	z-score, replicate 1	z-score, replicate 2	z-score, replicate 3	z-score, replicate 4	phenotype, replicate 1
CG9686	DRSC18439	-0.87	-0.7			
Vha16-5	DRSC02986	0.88	0.49			
CG4053	DRSC15538	0.56	0.6	0.17	-0.65	
CG9083 + Tpc2	DRSC04625	0.04	0.05			
flfl	DRSC16474	0.52	0.74			
mthl8	DRSC08211	0.36	0.15			
mthl8	DRSC08311	0.44	0.25			
Sse	DRSC09746	-1.79	-3.84			reduced secretion
Poxn	DRSC05589	0.28	-0.12			
Poxn	DRSC07512	0.27	-0.05			
out	DRSC19347	-0.18	-0.19			
nAChRbeta1	DRSC08097	-0.43	0.28			
nAChRbeta1	DRSC08728	0.4	0.54			
CG31174	DRSC13518	0.26	0.16			
CG8929	DRSC07298	-3.29	-4.02			reduced secretion
CG8929	DRSC22847	1.48	0.72			
Snm1	DRSC12130	0.24	0.21			
Sgt	DRSC02812	0.68	0.36			
CG5321	DRSC19940	0.3	0.49			
CG5321	DRSC22802	-0.41	-0.1			
CG31371	DRSC15079	0.27	0.4			
CG5149	DRSC02819	-3.8	0.52			reduced secretion
Polr1C	DRSC02719	0.05	-0.1			
Acam + CG17770	DRSC14110	0.28	0.37			
Acam + CG17770	DRSC15264	0.14	0.29			
CG17687	DRSC10279	0.19	-0.05			
mtrm	DRSC10322	-0.15	-0.28			
corto	DRSC12040	-0.24	0			
corto	DRSC12375	0.06	0.44			
corto	DRSC22279	-1.01	0.11			
pr	DRSC03596	-0.05	-0.01			

Next part, starting with the last 9 of the part before.
target	amplicon	z-score, replicate 1	z-score, replicate 2	z-score, replicate 3	z-score, replicate 4	phenotype, replicate 1
Polr1C	DRSC02719	0.05	-0.1			
Acam + CG17770	DRSC14110	0.28	0.37			
Acam + CG17770	DRSC15264	0.14	0.29			
CG17687	DRSC10279	0.19	-0.05			
mtrm	DRSC10322	-0.15	-0.28			
corto	DRSC12040	-0.24	0			
corto	DRSC12375	0.06	0.44			
corto	DRSC22279	-1.01	0.11			
pr	DRSC03596	-0.05	-0.01			
Orai	DRSC05684	0.3	0.38			
Orai	DRSC22061	0.45	-0.07			
CG4935	DRSC01924	-0.05	0.13			
CG11911	DRSC00331	0.16	0.46			
CG30269	DRSC04158	0.29	0.45			
CG6985	DRSC16164	0.04	0.15			
CG12817	DRSC14555	0.36	0.59			
CG8516	DRSC16437	0.34	0.52			
CG14445	DRSC17938	0.38	0.15			
Arr1	DRSC01867	0.48	0.45			
Ugt303B1	DRSC15141	0.48	0.44			
CG15635	DRSC00470	0.47	0	0.4	0.21	
CG15635	DRSC22873	2.78	1			
CG11596	DRSC18540	0.27	0.32			
t-Grip84	DRSC10904	0.2	0.24			
AkhR	DRSC03329	0.34	0.17			
udt	DRSC14214	0.58	0.38			
ppk24	DRSC15093	-0.13	0.14			
CG40191	DRSC21041	-0.09	0.18			
Atx2	DRSC15727	-4.74	-3.96			reduced secretion
CG2698	DRSC15447	0.25	0.18			
CG9444	DRSC16493	0.33	0.13			
CG33460	DRSC05570	0.27	0.41			
lncRNA:CR43337	DRSC07893	0.39	0.36			
l(2)k05819	DRSC00826	0.38	0.39			
lectin-30A	DRSC02560	-0.01	-0.02			
Exo70	DRSC10774	0.27	0.4			
Daxx	DRSC03255	0.21	0.16			
CG33303	DRSC02848	-1.9	-1.75			reduced secretion
Tomosyn	DRSC19365	0.12	0.5			
Tomosyn	DRSC19692	-6.37	0.61	0.67	-7.7	
Tomosyn	DRSC19782	0.12	0.41			
Tomosyn	DRSC19842	0.26	0.63	0.94	0.2	
Papss	DRSC11246	0.39	0.09			
CG6805	DRSC07011	-0.07	0.18			
klg	DRSC13591	0.8	0.51			
klg	DRSC16978	-0.37	-0.37			
Rcd1	DRSC07116	-0.05	-0.55			
Gr47a	DRSC06221	0	0.09			
CG7059	DRSC16187	0.29	0.39			
Cpr5C	DRSC18340	-0.57	0.36	0.45	-0.08	
CG17300	DRSC10260	0.27	0.48			
Ir52c	DRSC21801	1.26	0.62			
Polr2M	DRSC15513	-1.14	-1.43			
CG31189	DRSC16198	0.1	0.21			
Usp39	DRSC20032	0.16	0.04			
Lgr3	DRSC15704	0.42	0.3			
Lgr3	DRSC15706	-0.2	-0.24			
XRCC1	DRSC18729	0.52	0.52			
CG5011	DRSC00674	0.21	0.13			
CG5439	DRSC02861	0.43	0.31			
